# Values from PubChem BioAssay AID1224828 (NIAID, 2016).
# Assay: 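Regulators linking TLR4 signalling to p65 nuclear translocation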 (primary screen)
# Cells: mouse RAW264.7 G9 macrophage reporter cells (GFP-p65, Tnf promoter-mCherry)
# Reagents: siRNA pool against mouse genes, 100 nM
# Time to read-out: 2 days siRNA transfection, then 40 min LPS before fixation
# Conditions: LPS (Salmonella minnesota R595) at 10 ng/ml
# Detection: 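Microscopy ratio of nuclear to perinuclear-ring GFP-p65 signal, scaled to the plate median; gene score is the average of two replicate robust z-scores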
# Reading the numbers: p65 translocation robust z-score: higher = more nuclear NF-kappaB p65 after LPS than the plate median; nuclear/cytoplasmic p65 ratio: higher = more nuclear NF-kappaB p65
# Hit rule: 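Called active when z exceeds 3.3 or falls under -1.56 (median of Tlr4 controls), giving activity score of at least 50; no calls for control wells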
# Meaning of the calls: active = hit (p65 shift raised or lowered); inactive = no clear change
# The whole screen tested about 17,000 reagents; shown is a random part of them. In the full data, 762 (4.5%) got an active call. 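Active calls include both raised and lowered p65 entry, mostly lowered; wells with fewer than 50 cells lack a z-score.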 Raw values vary from plate to plate and are shown uncorrected. A reagent listed more than once was tested more than once; the source does not tell the runs apart.
gene,p65 translocation robust z-score,"nuclear/cytoplasmic p65 ratio, rep 1","nuclear/cytoplasmic p65 ratio, rep 2",low cell count flag,outcome
Bptf (bromodomain PHD finger transcription factor),0.24,1.49,1.41,enough cells to score,inactive
"Glmn (glomulin, FKBP associated protein)",-0.37,1.46,1.49,enough cells to score,inactive
Sox2ot (SOX2 overlapping transcript (non-protein coding)),-0.54,1.48,1.47,enough cells to score,inactive
2900052L18Rik (RIKEN cDNA 2900052L18 gene),,1.12,0.789,fewer than 50 cells per well; well left out of scoring,inactive
Mmab,-0.8,1.4,1.18,enough cells to score,inactive
Fbxw19 (F-box and WD-40 domain protein 19),-0.93,1.4,1.19,enough cells to score,inactive
Or52p2 (olfactory receptor family 52 subfamily P member 2),,1.58,1.38,fewer than 50 cells per well; well left out of scoring,inactive
Them5 (thioesterase superfamily member 5),-1.44,1.3,1.17,enough cells to score,inactive
Ak1 (adenylate kinase 1),-0.18,2.13,1.36,enough cells to score,inactive
Hsbp1 (heat shock factor binding protein 1),1.49,1.69,1.51,enough cells to score,inactive
Mis18bp1 (MIS18 binding protein 1),0.7,1.62,1.99,enough cells to score,inactive
"Cyp27a1 (cytochrome P450, family 27, subfamily a, polypeptide 1)",0.12,1.57,1.33,enough cells to score,inactive
Rdm1 (RAD52 motif 1),-0.92,1.29,1.09,enough cells to score,inactive
Ssbp3 (single-stranded DNA binding protein 3),-0.17,1.31,1.21,enough cells to score,inactive
"Pycr2 (pyrroline-5-carboxylate reductase family, member 2)",-0.67,1.43,1.41,enough cells to score,inactive
Sh2b3 (SH2B adaptor protein 3),-0.26,1.77,1.43,enough cells to score,inactive
Taf4b (TATA-box binding protein associated factor 4b),1.15,1.77,1.8,enough cells to score,inactive
Plg (plasminogen),-0.52,1.46,1.31,enough cells to score,inactive
Uimc1 (ubiquitin interaction motif containing 1),0.48,1.59,1.58,enough cells to score,inactive
Tbr1 (T-box brain transcription factor 1),0.99,1.65,1.66,enough cells to score,inactive
Mvb12a (multivesicular body subunit 12A),,1.69,1.47,fewer than 50 cells per well; well left out of scoring,inactive
Ankrd2 (ankyrin repeat domain 2),0.21,1.6,1.76,enough cells to score,inactive
Abhd14a (abhydrolase domain containing 14A),1.42,1.15,1.54,enough cells to score,inactive
"Atp6v0a1 (ATPase, H+ transporting, lysosomal V0 subunit A1)",-0.18,1.49,1.57,enough cells to score,inactive
Cetn2 (centrin 2),-0.18,1.56,1.76,enough cells to score,inactive
Slu7 (SLU7 splicing factor homolog (S. cerevisiae)),0.34,1.42,1.84,enough cells to score,inactive
Trim56 (tripartite motif-containing 56),-1.05,1.38,1.24,enough cells to score,inactive
Trpv3,,1.32,1.34,fewer than 50 cells per well; well left out of scoring,inactive
Tal2 (T cell acute lymphocytic leukemia 2),-0.32,1.39,1.55,enough cells to score,inactive
"G6pc2 (glucose-6-phosphatase, catalytic, 2)",-0.4,1.4,1.3,enough cells to score,inactive
Marveld3 (MARVEL (membrane-associating) domain containing 3),0.83,1.92,1.71,enough cells to score,inactive
Creb3l4 (cAMP responsive element binding protein 3-like 4),0.56,1.79,1.73,enough cells to score,inactive
Prokr1 (prokineticin receptor 1),-1.32,1.31,1.4,enough cells to score,inactive
Spr (sepiapterin reductase),0.64,1.64,1.64,enough cells to score,inactive
Ier3 (immediate early response 3),-1.44,1.22,1.21,enough cells to score,inactive
Acat2 (acetyl-Coenzyme A acetyltransferase 2),-0.31,1.59,1.56,enough cells to score,inactive
Mt1 (metallothionein 1),0.48,1.87,1.66,enough cells to score,inactive
Cmtm4 (CKLF-like MARVEL transmembrane domain containing 4),0.62,1.68,1.89,enough cells to score,inactive
Psapl1 (prosaposin-like 1),0.08,1.37,1.32,enough cells to score,inactive
Npr2 (natriuretic peptide receptor 2),-1.62,1.35,1.23,enough cells to score,active
Npr2 (natriuretic peptide receptor 2),-1.37,1.32,1.38,enough cells to score,inactive
Esr2 (estrogen receptor 2 (beta)),1.62,1.71,1.55,enough cells to score,inactive
"Gm16897 (predicted gene, 16897)",0,1.38,1.5,enough cells to score,inactive
"Itpkb (inositol 1,4,5-trisphosphate 3-kinase B)",0.65,1.53,1.46,enough cells to score,inactive
Khk (ketohexokinase),0.07,1.71,1.37,enough cells to score,inactive
Or8d2b (olfactory receptor family 8 subfamily D member 2D),0.3,1.64,1.14,enough cells to score,inactive
Cfap57 (cilia and flagella associated protein 57),1.06,1.75,1.54,enough cells to score,inactive
L3mbtl3 (L3MBTL3 histone methyl-lysine binding protein),0.1,1.61,1.4,enough cells to score,inactive
Gm9734 (predicted gene 9734),,1.27,1.32,fewer than 50 cells per well; well left out of scoring,inactive
Ciao3 (cytosolic iron-sulfur assembly component 3),-0.37,1.72,1.54,enough cells to score,inactive
"Psmc6 (proteasome (prosome, macropain) 26S subunit, ATPase, 6)",,1.1,1.51,fewer than 50 cells per well; well left out of scoring,inactive
"Tnnt1 (troponin T1, skeletal, slow)",-0.44,1.41,1.5,enough cells to score,inactive
Or6z6 (olfactory receptor family 6 subfamily Z member 6),,1.44,1.11,fewer than 50 cells per well; well left out of scoring,inactive
Slc15a5,-0.51,1.3,1.53,enough cells to score,inactive
Fam3d (FAM3 metabolism regulating signaling molecule D),2.03,2.01,1.84,enough cells to score,inactive
Tmem218 (transmembrane protein 218),,1.23,1.5,fewer than 50 cells per well; well left out of scoring,inactive
U2af2 (U2 small nuclear ribonucleoprotein auxiliary factor (U2AF) 2),,1.44,1.06,fewer than 50 cells per well; well left out of scoring,inactive
"Mkrn1 (makorin, ring finger protein, 1)",1.05,1.86,1.83,enough cells to score,inactive
Ifi203 (interferon activated gene 203),0.27,1.58,1.47,enough cells to score,inactive
